# Assay results reported in patent US12180208B1, “Pyrazolo[1,5-c]pyrido[3,4-e]pyrimidines as CK2 inhibitors” (KING FAISAL UNIVERSITY, priority 2024, dated 2024).
# pIC50: −log10 of the molar value.
# How the values were obtained:
# Format in all cases: cell-based
# [1] = system: PC3 (prostate); experiment: In vitro cytotoxic activity (MTT) assay, PC3; conditions: Homo sapiens, 96 hours exposure, read-out: Cytotoxicity activity IC50 (50% inhibition of cell proliferation)
# Description: (§1) Compounds 1-16 were screened for their in vitro cytotoxic activity utilizing a 3-(4,5-dimethyl-thiazol-2-yl)-2,5-diphenyltetrazolium bromide (MTT) assay against selected cancer human cell lines consisting of PC3 (prostate), HCT116 (colon), A375 (melanoma), H1299 (lung), MIAPaCa-2 (pancreas), HL60 (leukemia), MCF7 (breast), MDA-MB-231 (breast) (T. Mosmann, J. Immunol. Meth., 1983, 65, 55-63). The cells were cultured at 37° C. in RMPI1640 medium supplemented with 10% fetal bovine serum, 50 IU/mL penicillin, and 50 μg/mL streptomycin in a 5% CO2 incubator. All cells were sub-cultured 3 times/week by trypsinisation. Viable cells were seeded and allowed to adhere for 12 hours before a test drug was added in 96-well plates at an initial density of 1.0×10^5 cells/mL. Tumor cell lines were separately exposed to various concentrations of the tested compounds followed by incubation at a temperature of 37° C. during 96 hours inside a medium of fresh RMPI 1640. Cells were subsequently incubated at 37° C. using MTT at 0.5 mg/mL during 4 hours. After removal of supernatant, formazan crystals were dissolved in isopropanol and the optical density was measured at 570 nm. CX-4945 was used as a positive control.
# [2] = system: HCT116 (colon); experiment: In vitro cytotoxic activity (MTT) assay, HCT116; conditions: Homo sapiens, HCT-116, 96 hours exposure, read-out: Cytotoxicity activity IC50 (50% inhibition of cell proliferation)
# Description: as §1
# [3] = system: A375 (melanoma); experiment: In vitro cytotoxic activity (MTT) assay, A375; conditions: Homo sapiens, A-375, 96 hours exposure, read-out: Cytotoxicity activity IC50 (50% inhibition of cell proliferation)
# Description: as §1
# [4] = system: H1299 (lung); experiment: In vitro cytotoxic activity (MTT) assay, H1299; conditions: Homo sapiens, NCI-H1299, 96 hours exposure, read-out: Cytotoxicity activity IC50 (50% inhibition of cell proliferation)
# Description: as §1
# [5] = system: MIAPaCa-2 (pancreas); experiment: In vitro cytotoxic activity (MTT) assay, MIAPaCa-2; conditions: Homo sapiens, MIA PaCa-2, 96 hours exposure, read-out: Cytotoxicity activity IC50 (50% inhibition of cell proliferation)
# Description: as §1
# [6] = system: HL60 (leukemia); experiment: In vitro cytotoxic activity (MTT) assay, HL60; conditions: Homo sapiens, HL-60, 96 hours exposure, read-out: Cytotoxicity activity IC50 (50% inhibition of cell proliferation)
# Description: as §1
# [7] = system: MCF7 (breast); experiment: In vitro cytotoxic activity (MTT) assay, MCF7; conditions: Homo sapiens, 96 hours exposure, read-out: Cytotoxicity activity IC50 (50% inhibition of cell proliferation)
# Description: as §1
# [8] = system: MDA-MB-231 (breast); experiment: In vitro cytotoxic activity (MTT) assay, MDA-MB-231; conditions: Homo sapiens, 96 hours exposure, read-out: Cytotoxicity activity IC50 (50% inhibition of cell proliferation)
# Description: as §1
structure (smiles),measurement,setting,value
"O=C(O)c1ccc2c(c1)nc(Nc1cccc(Cl)c1)c1ccncc12 [CX-4945, reference compound]",pIC50,[1],5.70
same,pIC50,[2],5.64
same,pIC50,[3],5.39
same,pIC50,[4],5.64
same,pIC50,[5],6.00
same,pIC50,[6],5.43
same,pIC50,[7],5.04
same,pIC50,[8],5.21
